No dose or concentration is given here for some results. Positions of bridges follow the written chain, without caps; N, C: chain ends. No end group written: not given here.

For one data set, the system named is RMS xenografts (Rh4). In words: in vivo phage selection. The following applies: two rounds of in vivo selection; 30 phages sequenced. More on the design: species or system mouse.
For the next data set, the system named is RD cells. In words: phage-displayed cyclic peptide library in vitro panning. Type of data set: cell-based. The settings on record: phage panning on RD cells, five rounds; 40 phages from each in vitro screening sequenced.

Regarding “CSGPNVRSRRC (disulfide 1-11 (inferred)) [RMS-P9]”, the “Frequency in selection in vivo (count of sequenced phages)” value (“Frequency in selection in vivo” below) in the data set with RMS xenografts (Rh4) is reported as 2/30. In addition, the “Frequency in both selections in vitro (count of sequenced phages)” value (“Frequency in both selections in vitro” for short) in the data set on RD cells was 3/80.

In the case of “CMGTINTRTKKC (disulfide 1-12 (inferred)) [RMS-P3]”, the “Frequency in both selections in vitro” value with RD cells is reported as 14/80.

As for “CLTGRQRRSSQC (disulfide 1-12 (inferred)) [RMS-P10]”, the “Frequency in selection in vivo” value in the data set with RMS xenografts (Rh4) was 2/30. Besides, the “Frequency in both selections in vitro” value in the data set on RD cells was 4/80.

As for “CMGTTNTRTKKC (disulfide 1-12 (inferred)) [RMS-P6]”, in the data set on RD cells, the “Frequency in both selections in vitro” value is 34/80.

Take “CGTGSRARRSC (disulfide 1-11 (inferred)) [RMS-P7]”: the “Frequency in selection in vivo” value in the data set with RMS xenografts (Rh4) is reported as 3/30. Moreover, the “Frequency in both selections in vitro” value in the data set with RD cells is reported as 7/80.

For the sequence “CRTGRQRRSSEC (disulfide 1-12 (inferred)) [RMS-P8]”, in the data set with RMS xenografts (Rh4), the “Frequency in selection in vivo” value was 2/30. The “Frequency in both selections in vitro” value in the data set on RD cells is recorded as 3/80.
